This note sets out measurements from article PMC11067302.

This test deals with T1, Flag-IL-3Rα (UniProt P26951).
T1 sequence: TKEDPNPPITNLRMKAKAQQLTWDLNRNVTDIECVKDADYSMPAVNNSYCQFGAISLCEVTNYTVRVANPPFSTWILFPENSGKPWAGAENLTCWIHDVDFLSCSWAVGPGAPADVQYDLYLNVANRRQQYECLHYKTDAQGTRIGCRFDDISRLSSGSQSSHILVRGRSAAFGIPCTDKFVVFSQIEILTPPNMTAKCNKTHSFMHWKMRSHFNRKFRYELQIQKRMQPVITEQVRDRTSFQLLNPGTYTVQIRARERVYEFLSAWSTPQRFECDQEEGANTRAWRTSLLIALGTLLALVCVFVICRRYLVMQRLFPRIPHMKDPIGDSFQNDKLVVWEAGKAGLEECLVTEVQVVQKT
Briefly: co-IP; 293T cells co-transfected with HA-RNF128 (or HA-tagged truncated forms) and Flag-tagged receptor; RIPA lysate; immunoprecipitation with anti-Flag antibody on protein A agarose, 4 °C; immunoblot. (In general: In western blotting, separated proteins are transferred to a membrane and probed.)

Results are given in words; binding and its absence hold for the method and conditions named. In cells and extracts the contact can be indirect. Binding can be weak; no strength is given. Sequences can lack the tags named with a protein.

On to “N-terminal domain of RNF128 (HA-tagged truncated form of RNF128) (domain or fragment)”, for which the binding entry is listed as “binds”.
